Results from publication PMC7925099, “Identification of an Antiretroviral Small Molecule That Appears To Be a Host-Targeting Inhibitor of HIV-1 Assembly” (Journal of Virology, 2021).
These are yes or no findings as the source states them, for the method shown. In cells and extracts the contact can be indirect. Some binding calls cover weakened binding; strength is not graded here.

Protein sequences, listed by entry. Tags and fused reporters are not part of them.
UniProt P26196: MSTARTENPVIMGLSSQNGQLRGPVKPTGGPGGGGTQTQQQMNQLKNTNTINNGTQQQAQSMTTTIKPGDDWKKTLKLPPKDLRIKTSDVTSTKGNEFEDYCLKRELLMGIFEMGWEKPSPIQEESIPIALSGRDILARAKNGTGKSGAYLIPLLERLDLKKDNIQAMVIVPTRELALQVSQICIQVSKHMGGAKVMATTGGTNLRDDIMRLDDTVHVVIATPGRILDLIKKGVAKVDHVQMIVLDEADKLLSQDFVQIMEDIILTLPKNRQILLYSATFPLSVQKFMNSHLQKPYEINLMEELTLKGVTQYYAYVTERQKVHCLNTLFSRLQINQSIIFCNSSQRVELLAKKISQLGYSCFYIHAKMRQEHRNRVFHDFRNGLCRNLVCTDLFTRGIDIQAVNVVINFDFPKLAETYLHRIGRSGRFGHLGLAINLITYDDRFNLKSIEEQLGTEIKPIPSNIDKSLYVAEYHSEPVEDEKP
UniProt Q8IZH2: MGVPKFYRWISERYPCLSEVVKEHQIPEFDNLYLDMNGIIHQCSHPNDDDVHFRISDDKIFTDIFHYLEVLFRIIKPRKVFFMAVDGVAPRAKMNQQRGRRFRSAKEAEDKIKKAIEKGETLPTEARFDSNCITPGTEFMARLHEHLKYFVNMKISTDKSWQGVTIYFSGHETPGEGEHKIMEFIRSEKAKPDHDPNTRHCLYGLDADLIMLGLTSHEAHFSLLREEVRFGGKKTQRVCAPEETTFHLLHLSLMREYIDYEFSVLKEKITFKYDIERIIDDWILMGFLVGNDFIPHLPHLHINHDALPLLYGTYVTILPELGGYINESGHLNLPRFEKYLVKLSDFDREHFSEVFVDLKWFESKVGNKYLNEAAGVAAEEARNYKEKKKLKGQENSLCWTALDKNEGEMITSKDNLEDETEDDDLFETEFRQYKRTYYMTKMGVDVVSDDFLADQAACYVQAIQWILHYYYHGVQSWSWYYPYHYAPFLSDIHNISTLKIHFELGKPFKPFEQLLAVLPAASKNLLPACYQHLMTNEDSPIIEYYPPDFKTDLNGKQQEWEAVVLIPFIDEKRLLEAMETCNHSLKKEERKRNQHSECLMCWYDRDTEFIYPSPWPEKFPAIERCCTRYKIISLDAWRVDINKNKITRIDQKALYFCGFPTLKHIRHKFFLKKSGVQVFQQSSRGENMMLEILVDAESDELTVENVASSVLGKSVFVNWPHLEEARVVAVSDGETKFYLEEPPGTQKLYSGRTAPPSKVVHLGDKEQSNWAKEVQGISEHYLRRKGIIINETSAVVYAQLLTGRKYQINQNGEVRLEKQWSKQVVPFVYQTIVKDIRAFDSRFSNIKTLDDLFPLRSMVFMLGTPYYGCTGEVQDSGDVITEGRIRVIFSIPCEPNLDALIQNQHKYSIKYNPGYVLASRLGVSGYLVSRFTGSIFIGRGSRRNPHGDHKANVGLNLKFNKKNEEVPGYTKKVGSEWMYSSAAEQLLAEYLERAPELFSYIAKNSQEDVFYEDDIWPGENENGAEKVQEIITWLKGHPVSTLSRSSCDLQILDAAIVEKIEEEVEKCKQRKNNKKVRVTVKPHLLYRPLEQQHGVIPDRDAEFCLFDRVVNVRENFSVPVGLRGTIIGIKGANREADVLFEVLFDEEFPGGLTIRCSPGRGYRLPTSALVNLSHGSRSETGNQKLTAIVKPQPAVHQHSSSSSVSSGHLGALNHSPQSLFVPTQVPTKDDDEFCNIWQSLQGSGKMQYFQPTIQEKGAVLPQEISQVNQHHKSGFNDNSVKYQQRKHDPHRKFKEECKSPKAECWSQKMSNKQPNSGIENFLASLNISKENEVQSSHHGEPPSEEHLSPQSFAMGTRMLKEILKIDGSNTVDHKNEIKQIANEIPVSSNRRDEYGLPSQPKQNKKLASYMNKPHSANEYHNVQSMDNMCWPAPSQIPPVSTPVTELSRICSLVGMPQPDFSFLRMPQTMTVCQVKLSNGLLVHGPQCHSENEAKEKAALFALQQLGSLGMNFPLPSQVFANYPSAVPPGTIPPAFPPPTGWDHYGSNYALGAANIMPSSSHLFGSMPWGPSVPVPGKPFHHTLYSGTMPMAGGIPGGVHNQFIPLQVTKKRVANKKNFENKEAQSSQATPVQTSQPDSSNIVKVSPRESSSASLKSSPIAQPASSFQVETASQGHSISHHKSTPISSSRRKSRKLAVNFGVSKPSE
UniProt Q13283: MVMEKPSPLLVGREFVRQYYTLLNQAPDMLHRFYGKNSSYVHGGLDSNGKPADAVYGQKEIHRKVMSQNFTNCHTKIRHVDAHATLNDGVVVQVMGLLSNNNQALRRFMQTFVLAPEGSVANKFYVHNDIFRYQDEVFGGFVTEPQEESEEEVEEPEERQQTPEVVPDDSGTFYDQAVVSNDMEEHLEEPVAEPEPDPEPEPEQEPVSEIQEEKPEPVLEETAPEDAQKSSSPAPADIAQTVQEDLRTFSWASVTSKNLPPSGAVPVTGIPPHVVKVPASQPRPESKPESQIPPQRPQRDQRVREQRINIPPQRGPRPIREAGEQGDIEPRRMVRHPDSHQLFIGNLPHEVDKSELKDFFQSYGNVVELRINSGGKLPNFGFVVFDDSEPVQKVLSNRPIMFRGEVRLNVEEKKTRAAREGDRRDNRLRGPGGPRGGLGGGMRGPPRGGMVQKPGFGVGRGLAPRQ

What was measured:
[1] = target: DEAD box RNA helicase 6 (DDX6) (human (endogenous in 293T)) (UniProt P26196); assay: proximity ligation; Duolink PLA on fixed, saponin-permeabilised 293T cells chronically infected with HIV-1 (293T-HIV); one rabbit and one mouse primary antibody to the two endogenous proteins; spots where the antigens are within ~40 nm; cells untreated or treated 16 h with 10 uM PAV-818, 10 uM PAV-543 or DMSO
[2] = target: T1, TIAR (human (endogenous in 293T)) (UniProt Q01085); assay: as above
T1 sequence: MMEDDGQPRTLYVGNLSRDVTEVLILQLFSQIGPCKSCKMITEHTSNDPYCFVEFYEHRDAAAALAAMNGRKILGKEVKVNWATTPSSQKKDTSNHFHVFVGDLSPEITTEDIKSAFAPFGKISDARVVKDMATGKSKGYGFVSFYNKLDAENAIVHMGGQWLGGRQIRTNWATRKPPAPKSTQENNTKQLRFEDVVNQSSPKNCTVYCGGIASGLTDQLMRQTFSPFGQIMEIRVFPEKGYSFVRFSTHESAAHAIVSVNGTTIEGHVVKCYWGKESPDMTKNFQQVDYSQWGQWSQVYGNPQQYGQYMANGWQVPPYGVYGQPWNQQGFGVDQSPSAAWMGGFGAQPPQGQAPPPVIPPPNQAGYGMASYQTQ

binding [1] | binding [2] | Substance
binds |  | 5'-3' exoribonuclease 1 (XRN1) (from UniProt Q8IZH2 1-1706)
 | binds | Ras-GAP SH3 domain-binding protein 1 (G3BP1) (from UniProt Q13283 1-466)
